Source: the supplement of paper PMC7666118
The other results are listed elsewhere or left out.

Chains of the proteins cited; added tags and fusions are not shown. Lines headed by an entry give the natural chain unless they say otherwise; changes in a name come on top.
UniProt Q13564: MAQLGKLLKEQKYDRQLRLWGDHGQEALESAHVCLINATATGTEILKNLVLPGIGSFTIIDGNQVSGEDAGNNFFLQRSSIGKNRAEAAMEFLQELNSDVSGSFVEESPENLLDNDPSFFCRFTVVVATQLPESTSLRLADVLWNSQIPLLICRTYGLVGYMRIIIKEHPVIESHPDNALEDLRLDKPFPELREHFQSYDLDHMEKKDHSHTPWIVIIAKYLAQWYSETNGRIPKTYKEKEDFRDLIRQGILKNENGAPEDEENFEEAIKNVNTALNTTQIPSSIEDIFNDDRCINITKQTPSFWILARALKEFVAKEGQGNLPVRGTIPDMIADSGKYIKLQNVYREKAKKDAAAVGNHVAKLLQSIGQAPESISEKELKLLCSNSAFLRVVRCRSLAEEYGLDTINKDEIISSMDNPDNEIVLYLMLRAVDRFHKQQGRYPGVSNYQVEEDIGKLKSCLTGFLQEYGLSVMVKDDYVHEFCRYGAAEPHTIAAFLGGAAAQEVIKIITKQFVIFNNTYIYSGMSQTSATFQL
UniProt Q9UJ68: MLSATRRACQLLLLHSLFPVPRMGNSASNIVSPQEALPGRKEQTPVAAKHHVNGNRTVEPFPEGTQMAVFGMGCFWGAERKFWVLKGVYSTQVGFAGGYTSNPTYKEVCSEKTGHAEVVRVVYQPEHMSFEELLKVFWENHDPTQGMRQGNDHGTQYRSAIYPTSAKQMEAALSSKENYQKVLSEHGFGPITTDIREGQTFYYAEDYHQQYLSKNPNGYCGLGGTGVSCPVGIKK
UniProt Q8TBE9: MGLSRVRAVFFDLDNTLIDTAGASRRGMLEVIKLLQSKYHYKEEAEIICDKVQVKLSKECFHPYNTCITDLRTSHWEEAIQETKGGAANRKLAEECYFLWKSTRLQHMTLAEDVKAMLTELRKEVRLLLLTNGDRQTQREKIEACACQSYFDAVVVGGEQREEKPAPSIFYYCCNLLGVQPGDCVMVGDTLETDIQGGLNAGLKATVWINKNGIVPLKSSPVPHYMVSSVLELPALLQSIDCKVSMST
UniProt P08651, whole entry: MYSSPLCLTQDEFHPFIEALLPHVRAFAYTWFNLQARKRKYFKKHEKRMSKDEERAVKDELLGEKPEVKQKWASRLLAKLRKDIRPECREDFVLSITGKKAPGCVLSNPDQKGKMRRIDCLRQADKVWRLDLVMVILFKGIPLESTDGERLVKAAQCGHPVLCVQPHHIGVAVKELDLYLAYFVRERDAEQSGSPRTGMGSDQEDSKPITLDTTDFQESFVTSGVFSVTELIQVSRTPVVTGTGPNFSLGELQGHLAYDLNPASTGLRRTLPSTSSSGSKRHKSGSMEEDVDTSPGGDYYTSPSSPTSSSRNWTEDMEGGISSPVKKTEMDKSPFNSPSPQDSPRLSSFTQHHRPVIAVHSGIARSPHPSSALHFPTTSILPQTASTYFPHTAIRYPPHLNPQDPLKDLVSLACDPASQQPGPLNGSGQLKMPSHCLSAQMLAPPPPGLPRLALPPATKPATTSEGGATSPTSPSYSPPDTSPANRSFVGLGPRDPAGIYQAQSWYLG
UniProt O43920, whole entry: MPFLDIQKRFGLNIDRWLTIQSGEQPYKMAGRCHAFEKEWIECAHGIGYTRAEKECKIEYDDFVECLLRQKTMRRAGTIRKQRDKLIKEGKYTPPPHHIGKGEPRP
UniProt Q6KC79: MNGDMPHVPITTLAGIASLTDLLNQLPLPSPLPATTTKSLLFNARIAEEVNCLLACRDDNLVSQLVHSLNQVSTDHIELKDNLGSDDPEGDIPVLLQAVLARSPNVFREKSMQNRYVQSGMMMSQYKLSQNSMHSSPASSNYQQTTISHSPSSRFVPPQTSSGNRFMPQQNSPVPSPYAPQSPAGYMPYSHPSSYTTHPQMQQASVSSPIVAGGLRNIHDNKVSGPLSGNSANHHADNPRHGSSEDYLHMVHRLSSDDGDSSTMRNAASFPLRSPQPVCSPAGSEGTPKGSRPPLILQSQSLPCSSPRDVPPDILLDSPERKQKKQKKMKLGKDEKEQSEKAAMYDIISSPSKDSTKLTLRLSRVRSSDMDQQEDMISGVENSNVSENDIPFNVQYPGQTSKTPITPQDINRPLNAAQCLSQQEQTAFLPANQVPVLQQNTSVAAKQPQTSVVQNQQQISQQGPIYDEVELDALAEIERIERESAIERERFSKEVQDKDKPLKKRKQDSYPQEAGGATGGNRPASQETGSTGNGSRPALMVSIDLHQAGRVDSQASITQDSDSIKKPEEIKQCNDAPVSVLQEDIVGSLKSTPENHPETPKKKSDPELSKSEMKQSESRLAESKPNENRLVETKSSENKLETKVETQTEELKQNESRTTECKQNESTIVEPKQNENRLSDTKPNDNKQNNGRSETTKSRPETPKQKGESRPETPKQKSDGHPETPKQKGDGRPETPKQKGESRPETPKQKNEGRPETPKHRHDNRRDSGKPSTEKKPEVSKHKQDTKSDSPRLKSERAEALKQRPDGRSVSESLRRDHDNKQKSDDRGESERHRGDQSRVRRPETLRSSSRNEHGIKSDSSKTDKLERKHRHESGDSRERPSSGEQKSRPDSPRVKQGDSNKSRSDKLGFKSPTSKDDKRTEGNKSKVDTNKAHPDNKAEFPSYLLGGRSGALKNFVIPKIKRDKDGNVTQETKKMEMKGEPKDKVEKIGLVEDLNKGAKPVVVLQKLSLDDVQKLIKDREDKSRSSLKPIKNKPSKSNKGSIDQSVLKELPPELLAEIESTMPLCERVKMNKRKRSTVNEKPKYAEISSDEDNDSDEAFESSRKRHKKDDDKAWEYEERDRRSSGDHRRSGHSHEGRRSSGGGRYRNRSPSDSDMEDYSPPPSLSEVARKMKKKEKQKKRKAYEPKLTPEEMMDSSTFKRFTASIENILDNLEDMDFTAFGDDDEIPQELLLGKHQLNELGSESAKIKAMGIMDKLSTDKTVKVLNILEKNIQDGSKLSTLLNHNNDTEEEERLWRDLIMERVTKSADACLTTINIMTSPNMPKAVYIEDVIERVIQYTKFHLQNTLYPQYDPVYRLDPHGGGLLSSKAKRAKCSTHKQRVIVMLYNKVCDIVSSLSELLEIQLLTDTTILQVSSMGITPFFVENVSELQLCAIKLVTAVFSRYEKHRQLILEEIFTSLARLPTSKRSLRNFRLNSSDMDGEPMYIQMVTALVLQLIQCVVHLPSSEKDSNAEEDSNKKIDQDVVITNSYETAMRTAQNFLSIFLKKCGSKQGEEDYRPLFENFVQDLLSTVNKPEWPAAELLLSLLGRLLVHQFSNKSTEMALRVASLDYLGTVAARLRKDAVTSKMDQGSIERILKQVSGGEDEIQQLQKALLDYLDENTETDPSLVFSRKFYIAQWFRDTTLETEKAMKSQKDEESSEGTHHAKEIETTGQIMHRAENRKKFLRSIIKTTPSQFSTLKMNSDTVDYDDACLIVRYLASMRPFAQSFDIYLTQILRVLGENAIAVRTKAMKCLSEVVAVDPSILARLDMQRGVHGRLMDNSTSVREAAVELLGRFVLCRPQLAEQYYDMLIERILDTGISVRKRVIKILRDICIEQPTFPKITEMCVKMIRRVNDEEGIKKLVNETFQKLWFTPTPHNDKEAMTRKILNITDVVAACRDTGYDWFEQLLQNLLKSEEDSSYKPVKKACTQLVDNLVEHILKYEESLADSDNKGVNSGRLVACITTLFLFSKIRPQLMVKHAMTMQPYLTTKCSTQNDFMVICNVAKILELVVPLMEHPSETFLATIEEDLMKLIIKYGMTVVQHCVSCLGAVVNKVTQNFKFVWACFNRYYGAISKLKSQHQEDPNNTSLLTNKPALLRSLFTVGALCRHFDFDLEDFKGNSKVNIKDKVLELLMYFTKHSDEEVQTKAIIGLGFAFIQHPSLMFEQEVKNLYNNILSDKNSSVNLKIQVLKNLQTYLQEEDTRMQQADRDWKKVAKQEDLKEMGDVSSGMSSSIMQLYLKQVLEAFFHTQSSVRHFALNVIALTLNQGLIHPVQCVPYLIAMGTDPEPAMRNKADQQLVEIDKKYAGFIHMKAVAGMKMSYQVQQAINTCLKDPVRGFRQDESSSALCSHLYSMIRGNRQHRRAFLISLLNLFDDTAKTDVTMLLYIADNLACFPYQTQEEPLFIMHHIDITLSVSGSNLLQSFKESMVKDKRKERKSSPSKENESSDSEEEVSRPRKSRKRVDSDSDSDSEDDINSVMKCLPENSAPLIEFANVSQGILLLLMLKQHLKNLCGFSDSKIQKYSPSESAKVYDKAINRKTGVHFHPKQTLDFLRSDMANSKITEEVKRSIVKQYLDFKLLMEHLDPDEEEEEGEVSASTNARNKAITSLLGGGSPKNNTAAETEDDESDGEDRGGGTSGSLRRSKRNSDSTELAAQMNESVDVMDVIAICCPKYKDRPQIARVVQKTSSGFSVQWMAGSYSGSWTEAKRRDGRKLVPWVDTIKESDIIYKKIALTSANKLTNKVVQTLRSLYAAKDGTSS
UniProt Q15843, whole entry: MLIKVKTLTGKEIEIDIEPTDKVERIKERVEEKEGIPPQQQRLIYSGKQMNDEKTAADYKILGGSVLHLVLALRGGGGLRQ
UniProt Q69YI7: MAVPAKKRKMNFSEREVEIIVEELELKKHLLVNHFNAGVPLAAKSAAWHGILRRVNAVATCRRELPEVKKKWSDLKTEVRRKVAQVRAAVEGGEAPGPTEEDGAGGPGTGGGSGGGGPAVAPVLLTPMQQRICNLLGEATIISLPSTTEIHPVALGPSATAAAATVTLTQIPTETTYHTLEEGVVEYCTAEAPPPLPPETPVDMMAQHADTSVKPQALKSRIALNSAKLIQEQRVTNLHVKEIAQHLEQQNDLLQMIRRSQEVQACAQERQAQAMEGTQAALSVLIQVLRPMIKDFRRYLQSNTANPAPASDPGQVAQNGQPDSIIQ
UniProt Q9NXR1: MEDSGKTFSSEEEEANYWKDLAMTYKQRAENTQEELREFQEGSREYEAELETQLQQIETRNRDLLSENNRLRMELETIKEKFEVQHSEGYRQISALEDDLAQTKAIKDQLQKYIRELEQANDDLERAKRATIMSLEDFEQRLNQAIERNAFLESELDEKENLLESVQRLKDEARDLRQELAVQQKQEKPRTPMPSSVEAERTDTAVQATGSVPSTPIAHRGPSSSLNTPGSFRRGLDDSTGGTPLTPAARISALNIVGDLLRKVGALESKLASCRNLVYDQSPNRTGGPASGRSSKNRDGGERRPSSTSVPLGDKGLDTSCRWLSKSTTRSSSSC
UniProt P03905, whole entry, looked up: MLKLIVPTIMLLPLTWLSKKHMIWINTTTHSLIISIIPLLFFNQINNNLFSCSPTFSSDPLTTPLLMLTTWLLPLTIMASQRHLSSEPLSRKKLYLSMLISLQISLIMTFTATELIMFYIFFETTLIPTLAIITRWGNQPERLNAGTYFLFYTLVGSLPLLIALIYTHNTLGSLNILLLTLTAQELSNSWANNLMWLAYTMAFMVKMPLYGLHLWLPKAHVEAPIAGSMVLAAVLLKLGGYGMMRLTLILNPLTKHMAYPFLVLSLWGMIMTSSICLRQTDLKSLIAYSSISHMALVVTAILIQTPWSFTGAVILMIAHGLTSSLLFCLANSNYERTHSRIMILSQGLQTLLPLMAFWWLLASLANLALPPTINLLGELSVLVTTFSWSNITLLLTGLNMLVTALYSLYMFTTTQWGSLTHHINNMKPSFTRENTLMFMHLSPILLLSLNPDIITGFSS
UniProt Q13232: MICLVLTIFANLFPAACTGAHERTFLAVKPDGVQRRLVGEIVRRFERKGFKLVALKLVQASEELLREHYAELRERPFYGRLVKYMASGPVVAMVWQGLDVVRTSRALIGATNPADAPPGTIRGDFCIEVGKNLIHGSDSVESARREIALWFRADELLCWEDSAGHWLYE
UniProt Q15653: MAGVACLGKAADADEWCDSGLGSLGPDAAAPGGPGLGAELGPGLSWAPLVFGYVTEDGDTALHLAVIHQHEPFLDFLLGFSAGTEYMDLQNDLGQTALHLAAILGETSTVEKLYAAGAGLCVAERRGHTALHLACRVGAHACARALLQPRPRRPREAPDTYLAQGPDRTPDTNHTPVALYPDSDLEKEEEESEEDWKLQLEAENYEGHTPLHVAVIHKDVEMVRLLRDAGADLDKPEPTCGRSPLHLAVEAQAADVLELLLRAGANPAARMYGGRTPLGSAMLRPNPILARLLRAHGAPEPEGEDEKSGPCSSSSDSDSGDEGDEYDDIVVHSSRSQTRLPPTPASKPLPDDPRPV
UniProt Q8NCF5: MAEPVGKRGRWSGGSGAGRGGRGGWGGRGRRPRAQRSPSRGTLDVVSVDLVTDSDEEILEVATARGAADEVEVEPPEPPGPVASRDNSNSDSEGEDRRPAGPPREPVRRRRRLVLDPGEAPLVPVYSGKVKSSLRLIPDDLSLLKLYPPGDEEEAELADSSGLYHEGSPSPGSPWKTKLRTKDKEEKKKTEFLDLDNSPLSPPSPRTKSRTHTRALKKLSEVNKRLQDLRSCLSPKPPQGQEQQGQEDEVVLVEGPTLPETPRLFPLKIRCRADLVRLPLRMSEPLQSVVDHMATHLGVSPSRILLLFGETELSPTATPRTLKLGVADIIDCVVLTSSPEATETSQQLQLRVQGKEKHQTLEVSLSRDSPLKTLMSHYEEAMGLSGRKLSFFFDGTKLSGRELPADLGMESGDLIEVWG

Each target was assayed with COc1ccc(Cn2ccc3ccc(C(=O)NO)cc32)cc1 (assay: dose-dependent thermal stabilisation call (2D-TPP, DLPTP, 10% FDR) (binary (1 = stabilised)); higher = stabilised by the compound). Conditions: system: HL-60 intact cells; concentration range 0.04-10 µM.

Q: With MTRF1L (UniProt Q9UGC7) as the target, how does the “dose-dependent thermal stabilisation call” value read?
A: Its value is inactive: 0.

Q: For NDUFS3 (UniProt O75489), which “dose-dependent thermal stabilisation call” value is on record?
A: Its value is inactive: 0.

Q: Which “dose-dependent thermal stabilisation call” value does the source give for NAGPA (UniProt Q9UK23) here?
A: Its value is inactive: 0.

Q: With NOP14 (UniProt P78316) as the target, how does the “dose-dependent thermal stabilisation call” value read?
A: The value was inactive: 0.

Q: Which “dose-dependent thermal stabilisation call” value does the source give for NAE1 (UniProt Q13564) here?
A: Its value is inactive: 0.

Q: MSRA (UniProt Q9UJ68) was tested. Which “dose-dependent thermal stabilisation call” value did it give?
A: Its value is inactive: 0.

Q: Which “dose-dependent thermal stabilisation call” value does the source give for NANP (UniProt Q8TBE9) here?
A: The value was inactive: 0.

Q: How did the “dose-dependent thermal stabilisation call” value turn out when NBEAL2 (UniProt Q6ZNJ1) was run?
A: Its value is inactive: 0.

Q: How did the “dose-dependent thermal stabilisation call” value turn out when NFIC (UniProt P08651) was run?
A: The value was inactive: 0.

Q: With NDUFB9 (UniProt Q9Y6M9) as the target, how does the “dose-dependent thermal stabilisation call” value read?
A: The value was inactive: 0.

Q: For MTSS1L (UniProt Q765P7), which “dose-dependent thermal stabilisation call” value is on record?
A: The value was inactive: 0.

Q: How did the “dose-dependent thermal stabilisation call” value turn out when NDUFS5 (UniProt O43920) was run?
A: The value was inactive: 0.

Q: NOLC1 (UniProt Q14978) was tested. Which “dose-dependent thermal stabilisation call” value did it give?
A: Its value is inactive: 0.

Q: How did the “dose-dependent thermal stabilisation call” value turn out when NCF1B (UniProt A6NI72) was run?
A: The value was inactive: 0.

Q: NIPBL (UniProt Q6KC79) was tested. Which “dose-dependent thermal stabilisation call” value did it give?
A: The value was inactive: 0.

Q: With NEDD8 (UniProt Q15843) as the target, how does the “dose-dependent thermal stabilisation call” value read?
A: Its value is inactive: 0.

Q: For MTR (UniProt Q99707), which “dose-dependent thermal stabilisation call” value is on record?
A: Its value is inactive: 0.

Q: NAT11 (UniProt Q86UY6) was tested. Which “dose-dependent thermal stabilisation call” value did it give?
A: The value was inactive: 0.

Q: Which “dose-dependent thermal stabilisation call” value does the source give for NAIF1 (UniProt Q69YI7) here?
A: Its value is inactive: 0.

Q: For NAT13 (UniProt Q9GZZ1), which “dose-dependent thermal stabilisation call” value is on record?
A: Its value is inactive: 0.

Q: For NDE1 (UniProt Q9NXR1), which “dose-dependent thermal stabilisation call” value is on record?
A: The value was inactive: 0.

Q: NIPSNAP1 (UniProt Q9BPW8) was tested. Which “dose-dependent thermal stabilisation call” value did it give?
A: The value was inactive: 0.

Q: NOTCH1 (UniProt P46531) was tested. Which “dose-dependent thermal stabilisation call” value did it give?
A: Its value is inactive: 0.

Q: With ND4 (UniProt P03905) as the target, how does the “dose-dependent thermal stabilisation call” value read?
A: Its value is inactive: 0.

Q: How did the “dose-dependent thermal stabilisation call” value turn out when N6AMT2 (UniProt Q8WVE0) was run?
A: Its value is inactive: 0.

Q: With NDC80 (UniProt O14777) as the target, how does the “dose-dependent thermal stabilisation call” value read?
A: The value was inactive: 0.

Q: Which “dose-dependent thermal stabilisation call” value does the source give for NME3 (UniProt Q13232) here?
A: Its value is inactive: 0.

Q: How did the “dose-dependent thermal stabilisation call” value turn out when NFKBIB (UniProt Q15653) was run?
A: The value was inactive: 0.

Q: For NCAPD2 (UniProt Q15021), which “dose-dependent thermal stabilisation call” value is on record?
A: The value was inactive: 0.

Q: How did the “dose-dependent thermal stabilisation call” value turn out when NFX1 (UniProt Q12986) was run?
A: The value was inactive: 0.

Q: NAT5 was tested. Which “dose-dependent thermal stabilisation call” value did it give?
A: Its value is inactive: 0.

Q: Which “dose-dependent thermal stabilisation call” value does the source give for NMRAL1 (UniProt Q9HBL8) here?
A: Its value is active: 1.

Q: Which “dose-dependent thermal stabilisation call” value does the source give for MYH9 (UniProt P35579) here?
A: Its value is inactive: 0.

Q: How did the “dose-dependent thermal stabilisation call” value turn out when NDST1 (UniProt P52848) was run?
A: Its value is inactive: 0.

Q: NGRN (UniProt Q9NPE2) was tested. Which “dose-dependent thermal stabilisation call” value did it give?
A: The value was inactive: 0.

Q: Which “dose-dependent thermal stabilisation call” value does the source give for NHSL1 (UniProt Q5SYE7) here?
A: Its value is inactive: 0.

Q: How did the “dose-dependent thermal stabilisation call” value turn out when MTX2 (UniProt O75431) was run?
A: Its value is inactive: 0.

Q: How did the “dose-dependent thermal stabilisation call” value turn out when NFATC2IP (UniProt Q8NCF5) was run?
A: The value was inactive: 0.
